The experiment concerns mice. The experiment can be described thus: animal or person. The class given is in vivo. The note with it: Mus musculus, ip, read-out: Tail Pinch ED50.

The record followed here is patent US4022791A (priority 1975, dated 1977).

On to `CN1CC[C@]23c4c5ccc(O)c4O[C@H]2[C@@H](O)C=C[C@H]3[C@H]1C5.O=S(=O)(O)O` [Morphine Sulfate, reference compound], for which the 50% effective dose (ED50) is 4.8 mg/kg.

Broadly, the ED50 is the midpoint of the dose-response relation.
